Results on eleven compounds are retold here after the supplement of paper PMC10689618.

Molecules are shown by their SMILES. This is one part of the list. Single values are uncertain, as repeats are few or missing.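 Primary human fetal astrocytes engulfed labelled rat cortical synaptosomes, measured as a red/green ratio corrected for calcein live-cell signal and scaled to the plate median. Toxicity meant calcein falling over 30%; decreased phagocytosis meant below 70% of median above 5 µM.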

Common to all, as to settings: 24 h
Experiment [1] concerns Human fetal astrocytes. Briefly: loss of total cells relative to no-compound high-control median (toxicity); higher = more toxic (fewer cells).
Experiment [2] relates to Human fetal astrocytes. As to the kind of experiment: synaptosome phagocytosis (pHrodo/calcein intensity ratio) relative to plate median of data wells; higher = more phagocytosis.
Experiment [3] has as its system Human fetal astrocytes. Briefly: loss of total cells relative to no-compound high-control median (toxicity); higher = more toxic (fewer cells). This is another data set of the same source.
For experiment [4], the system named is Human fetal astrocytes. Briefly: synaptosome phagocytosis (pHrodo/calcein intensity ratio) relative to plate median of data wells; higher = more phagocytosis. The source holds these as a separate data set.

For the compound `C=C[C@H]1CN2CC[C@H]1C[C@@H]2[C@@H](O)c1ccnc2ccccc12`, the “loss of total cells” value in the experiment on Human fetal astrocytes [1] (1.39 µM) is -2.1%; in the experiment with Human fetal astrocytes [1] (2.78 µM), -3.1%; with Human fetal astrocytes [1] (5.56 µM), 7%; in the experiment with Human fetal astrocytes [1] (11.11 µM), 2%; in the experiment on Human fetal astrocytes [1] (22.22 µM), -7%. Besides, the synaptosome phagocytosis was 102% with Human fetal astrocytes [2] (1.39 µM); 76.9% in the experiment on Human fetal astrocytes [2] (2.78 µM); 89.5% with Human fetal astrocytes [2] (5.56 µM); 102% in the experiment on Human fetal astrocytes [2] (11.11 µM); 90.9% in the experiment with Human fetal astrocytes [2] (22.22 µM).

For `CCCC(C)C1(CC)C(=O)NC(=O)NC1=O` (stereo not given), the “loss of total cells” value in the experiment with Human fetal astrocytes [1] (1.39 µM) is -12.4%; in the experiment with Human fetal astrocytes [1] (2.78 µM), -32.6%; in the experiment on Human fetal astrocytes [1] (5.56 µM), 0.3%; in the experiment on Human fetal astrocytes [1] (11.11 µM), -9.4%; with Human fetal astrocytes [1] (22.22 µM) it was 11.3%. The synaptosome phagocytosis in the experiment with Human fetal astrocytes [2] (1.39 µM) was 97.4%; in the experiment on Human fetal astrocytes [2] (2.78 µM), 73.4%; in the experiment on Human fetal astrocytes [2] (5.56 µM), 108%; in the experiment on Human fetal astrocytes [2] (11.11 µM), 91.2%; with Human fetal astrocytes [2] (22.22 µM), 101%.

For `C[C@]12CC[C@@H](O)C[C@@H]1CC[C@@H]1[C@@H]2CC[C@]2(C)C(=O)CC[C@@H]12`, the “loss of total cells” value in the experiment with Human fetal astrocytes [1] (1.39 µM) was -9%; in the experiment on Human fetal astrocytes [1] (2.78 µM), 9%; in the experiment on Human fetal astrocytes [1] (5.56 µM), 11%; in the experiment with Human fetal astrocytes [1] (11.11 µM) it was 8.8%; in the experiment with Human fetal astrocytes [1] (22.22 µM), 13.3%. Moreover, the synaptosome phagocytosis in the experiment with Human fetal astrocytes [2] (1.39 µM) was 120%; in the experiment with Human fetal astrocytes [2] (2.78 µM) it was 107%; in the experiment on Human fetal astrocytes [2] (5.56 µM), 93%; with Human fetal astrocytes [2] (11.11 µM), 70%; with Human fetal astrocytes [2] (22.22 µM) it was 103%.

For `N#C/C(=C\c1ccc(O)cc1)C(=O)O` [alpha-CYANO-4-HYDROXYCINNAMIC ACID], the “loss of total cells” value was 16.2% in the experiment on Human fetal astrocytes [1] (1.39 µM); 8.3% with Human fetal astrocytes [1] (2.78 µM); -0.7% in the experiment with Human fetal astrocytes [1] (5.56 µM); 10.5% in the experiment with Human fetal astrocytes [1] (11.11 µM); 9.8% with Human fetal astrocytes [1] (22.22 µM). Further, the synaptosome phagocytosis in the experiment on Human fetal astrocytes [2] (1.39 µM) is 96.3%; in the experiment with Human fetal astrocytes [2] (2.78 µM), 118%; with Human fetal astrocytes [2] (5.56 µM) it was 119%; with Human fetal astrocytes [2] (11.11 µM) it was 101%; with Human fetal astrocytes [2] (22.22 µM), 128%.

Regarding `CN1C[C@H](C(=O)N[C@]2(C)O[C@@]3(O)[C@@H]4CCCN4C(=O)[C@H](Cc4ccccc4)N3C2=O)C[C@@H]2c3cccc4[nH]cc(c34)C[C@H]21` [Dihydroergotamine methanesulfonate], the “loss of total cells” value in the experiment on Human fetal astrocytes [3] (1.39 µM) is 15.5%; in the experiment with Human fetal astrocytes [3] (2.78 µM) it was 0%; with Human fetal astrocytes [3] (5.56 µM) it was 6.6%; in the experiment with Human fetal astrocytes [3] (11.11 µM), 6.7%; in the experiment on Human fetal astrocytes [3] (22.22 µM) it was 4%; in the experiment with Human fetal astrocytes [1] (1.39 µM) it was 8.6%. Moreover, the “loss of total cells” value with Human fetal astrocytes [1] (2.78 µM) was -11.2%; in the experiment on Human fetal astrocytes [1] (5.56 µM), -8.4%; with Human fetal astrocytes [1] (11.11 µM) it was -5.5%; in the experiment on Human fetal astrocytes [1] (22.22 µM), -8.2%. Moreover, the synaptosome phagocytosis was 98.8% in the experiment with Human fetal astrocytes [2] (1.39 µM); 95.4% in the experiment with Human fetal astrocytes [2] (2.78 µM); 119% in the experiment on Human fetal astrocytes [2] (5.56 µM); 90% in the experiment on Human fetal astrocytes [2] (11.11 µM); 84.1% in the experiment with Human fetal astrocytes [2] (22.22 µM); 128% in the experiment on Human fetal astrocytes [4] (1.39 µM). Also, the synaptosome phagocytosis in the experiment on Human fetal astrocytes [4] (2.78 µM) was 87.6%; in the experiment on Human fetal astrocytes [4] (5.56 µM) it was 94.6%; with Human fetal astrocytes [4] (11.11 µM) it was 129%; in the experiment with Human fetal astrocytes [4] (22.22 µM), 85.8%.

With `N[C@H](CO)Cc1ccccc1`, the “loss of total cells” value was -0.8% with Human fetal astrocytes [1] (1.39 µM); -6.9% in the experiment on Human fetal astrocytes [1] (2.78 µM); 5.1% in the experiment with Human fetal astrocytes [1] (5.56 µM); 0.7% in the experiment on Human fetal astrocytes [1] (11.11 µM); -0.7% with Human fetal astrocytes [1] (22.22 µM). Besides, the synaptosome phagocytosis was 78.4% in the experiment on Human fetal astrocytes [2] (1.39 µM); 138% in the experiment on Human fetal astrocytes [2] (2.78 µM); 124% with Human fetal astrocytes [2] (5.56 µM); 94.2% in the experiment on Human fetal astrocytes [2] (11.11 µM); 128% in the experiment with Human fetal astrocytes [2] (22.22 µM).

For `CCOC(=O)C1C(C=C(C)C)C1(C)C` (stereo not given), the “loss of total cells” value in the experiment with Human fetal astrocytes [1] (1.39 µM) is -10.7%; with Human fetal astrocytes [1] (2.78 µM) it was -3.2%; in the experiment with Human fetal astrocytes [1] (5.56 µM) it was 0%; in the experiment with Human fetal astrocytes [1] (11.11 µM), 14.2%; in the experiment with Human fetal astrocytes [1] (22.22 µM) it was 16.3%. Also, the synaptosome phagocytosis is 138% with Human fetal astrocytes [2] (1.39 µM); 104% in the experiment with Human fetal astrocytes [2] (2.78 µM); 116% with Human fetal astrocytes [2] (5.56 µM); 154% in the experiment with Human fetal astrocytes [2] (11.11 µM); 105% in the experiment with Human fetal astrocytes [2] (22.22 µM).

As to `CN(C)[C@@H]1C(=O)C(C(N)=O)=C(O)[C@@]2(O)C(=O)C3=C(O)c4c(O)cccc4[C@@](C)(O)[C@H]3C[C@@H]12`, the “loss of total cells” value in the experiment with Human fetal astrocytes [1] (1.39 µM) is -11%; in the experiment on Human fetal astrocytes [1] (2.78 µM) it was -16.6%; in the experiment on Human fetal astrocytes [1] (5.56 µM), -2.1%; in the experiment on Human fetal astrocytes [1] (11.11 µM), 1.4%; in the experiment on Human fetal astrocytes [1] (22.22 µM), -12.5%. The synaptosome phagocytosis was 93.5% in the experiment with Human fetal astrocytes [2] (1.39 µM); 74.5% with Human fetal astrocytes [2] (2.78 µM); 91.1% in the experiment on Human fetal astrocytes [2] (5.56 µM); 99.8% in the experiment with Human fetal astrocytes [2] (11.11 µM); 100% with Human fetal astrocytes [2] (22.22 µM).

Consider `O=C1CC[C@@]2(O)[C@H]3Cc4ccc(O)c5c4[C@@]2(CCN3CC2CC2)[C@H]1O5`, for which the “loss of total cells” value in the experiment on Human fetal astrocytes [1] (1.39 µM) was 29%; in the experiment on Human fetal astrocytes [1] (2.78 µM), -29.4%; in the experiment on Human fetal astrocytes [1] (5.56 µM), 8.7%; in the experiment with Human fetal astrocytes [1] (11.11 µM) it was 14.1%; with Human fetal astrocytes [1] (22.22 µM), -7.2%. Besides, the synaptosome phagocytosis with Human fetal astrocytes [2] (1.39 µM) is 150%; with Human fetal astrocytes [2] (2.78 µM), 119%; in the experiment with Human fetal astrocytes [2] (5.56 µM), 94.2%; with Human fetal astrocytes [2] (11.11 µM), 120%; in the experiment on Human fetal astrocytes [2] (22.22 µM) it was 97%.

On to `CC(=O)O[C@H]1C[C@H](O[C@H]2[C@@H](O)C[C@H](O[C@H]3[C@@H](O)C[C@H](O[C@H]4CC[C@@]5(C)[C@H](CC[C@@H]6[C@@H]5C[C@@H](O)[C@]5(C)[C@@H](C7=CC(=O)OC7)CC[C@]65O)C4)O[C@@H]3C)O[C@@H]2C)O[C@H](C)[C@H]1O[C@@H]1O[C@H](CO)[C@@H](O)[C@H](O)[C@H]1O`, for which the “loss of total cells” value in the experiment on Human fetal astrocytes [1] (1.39 µM) worked out at 4.1%; with Human fetal astrocytes [1] (2.78 µM) it was 11.9%; with Human fetal astrocytes [1] (5.56 µM) it was 12.9%; in the experiment with Human fetal astrocytes [1] (11.11 µM), 39.1%; in the experiment on Human fetal astrocytes [1] (22.22 µM), 44.8%. Also, the synaptosome phagocytosis in the experiment on Human fetal astrocytes [2] (1.39 µM) is 81.3%; in the experiment with Human fetal astrocytes [2] (2.78 µM) it was 92%; with Human fetal astrocytes [2] (5.56 µM), 67.4%; in the experiment with Human fetal astrocytes [2] (11.11 µM), 5.7%; in the experiment on Human fetal astrocytes [2] (22.22 µM), 64.5%.

For the compound `CN1[C@@H]2CC[C@H]1C[C@@H](OC(=O)[C@H](CO)c1ccccc1)C2`, the “loss of total cells” value in the experiment on Human fetal astrocytes [1] (1.39 µM) is 9.8%; in the experiment with Human fetal astrocytes [1] (2.78 µM), -21.4%; with Human fetal astrocytes [1] (5.56 µM), -0.7%; in the experiment with Human fetal astrocytes [1] (11.11 µM), 11.2%; with Human fetal astrocytes [1] (22.22 µM), -19.1%. In addition, the synaptosome phagocytosis in the experiment on Human fetal astrocytes [2] (1.39 µM) is 109%; in the experiment on Human fetal astrocytes [2] (2.78 µM), 91.3%; in the experiment on Human fetal astrocytes [2] (5.56 µM) it was 114%; in the experiment on Human fetal astrocytes [2] (11.11 µM), 81.4%; in the experiment on Human fetal astrocytes [2] (22.22 µM), 99.1%.
